Consider 14 targets from the supplement of paper PMC12067093, “Discovery and optimisation of a covalent ligand for TRIM25 and its application to targeted protein ubiquitination” (Chemical Science, 2025).

By UniProt entry, the sequences of proteins in these tests, tags left out. Where a name states a change or a piece, a line headed by the entry shows the natural chain unless it says otherwise.
UniProt Q15022: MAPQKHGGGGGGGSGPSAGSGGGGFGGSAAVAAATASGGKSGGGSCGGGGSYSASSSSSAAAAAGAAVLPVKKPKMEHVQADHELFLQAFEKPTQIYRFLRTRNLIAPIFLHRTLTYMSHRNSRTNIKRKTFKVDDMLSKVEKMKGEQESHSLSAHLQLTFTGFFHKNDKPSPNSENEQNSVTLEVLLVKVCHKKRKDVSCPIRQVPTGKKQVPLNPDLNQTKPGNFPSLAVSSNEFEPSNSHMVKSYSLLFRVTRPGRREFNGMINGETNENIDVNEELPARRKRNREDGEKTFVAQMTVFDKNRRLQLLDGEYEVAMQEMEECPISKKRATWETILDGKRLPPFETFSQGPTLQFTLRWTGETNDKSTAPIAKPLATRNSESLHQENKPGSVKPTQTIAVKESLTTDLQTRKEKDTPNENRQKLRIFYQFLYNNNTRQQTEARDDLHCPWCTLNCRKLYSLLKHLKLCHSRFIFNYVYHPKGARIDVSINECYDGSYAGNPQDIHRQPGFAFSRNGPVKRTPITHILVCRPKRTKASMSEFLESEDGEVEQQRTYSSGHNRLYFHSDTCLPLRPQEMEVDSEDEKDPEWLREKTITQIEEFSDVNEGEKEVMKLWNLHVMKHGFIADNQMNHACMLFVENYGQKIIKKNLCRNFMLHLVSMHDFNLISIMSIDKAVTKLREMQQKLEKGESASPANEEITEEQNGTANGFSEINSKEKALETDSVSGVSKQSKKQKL
UniProt Q9P246, whole entry, looked up: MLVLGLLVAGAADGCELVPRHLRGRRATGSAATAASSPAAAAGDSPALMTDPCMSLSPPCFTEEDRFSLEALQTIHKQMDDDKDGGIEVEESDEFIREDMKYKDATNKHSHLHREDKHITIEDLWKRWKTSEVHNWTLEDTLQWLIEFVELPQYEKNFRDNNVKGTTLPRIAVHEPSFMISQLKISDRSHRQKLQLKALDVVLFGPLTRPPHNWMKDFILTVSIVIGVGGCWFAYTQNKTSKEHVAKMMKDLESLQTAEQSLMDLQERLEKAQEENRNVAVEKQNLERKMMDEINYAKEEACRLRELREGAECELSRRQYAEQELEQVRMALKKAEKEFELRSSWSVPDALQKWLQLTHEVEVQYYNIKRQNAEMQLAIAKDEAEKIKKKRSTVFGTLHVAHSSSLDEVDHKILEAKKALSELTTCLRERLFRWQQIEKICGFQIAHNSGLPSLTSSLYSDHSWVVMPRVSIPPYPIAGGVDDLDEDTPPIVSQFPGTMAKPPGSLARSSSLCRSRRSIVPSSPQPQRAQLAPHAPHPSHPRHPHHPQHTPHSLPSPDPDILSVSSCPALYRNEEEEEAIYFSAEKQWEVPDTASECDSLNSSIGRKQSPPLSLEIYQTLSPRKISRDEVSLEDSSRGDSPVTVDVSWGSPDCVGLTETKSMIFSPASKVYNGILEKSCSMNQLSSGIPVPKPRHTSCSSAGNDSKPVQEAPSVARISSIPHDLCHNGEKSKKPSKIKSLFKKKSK
UniProt O95793: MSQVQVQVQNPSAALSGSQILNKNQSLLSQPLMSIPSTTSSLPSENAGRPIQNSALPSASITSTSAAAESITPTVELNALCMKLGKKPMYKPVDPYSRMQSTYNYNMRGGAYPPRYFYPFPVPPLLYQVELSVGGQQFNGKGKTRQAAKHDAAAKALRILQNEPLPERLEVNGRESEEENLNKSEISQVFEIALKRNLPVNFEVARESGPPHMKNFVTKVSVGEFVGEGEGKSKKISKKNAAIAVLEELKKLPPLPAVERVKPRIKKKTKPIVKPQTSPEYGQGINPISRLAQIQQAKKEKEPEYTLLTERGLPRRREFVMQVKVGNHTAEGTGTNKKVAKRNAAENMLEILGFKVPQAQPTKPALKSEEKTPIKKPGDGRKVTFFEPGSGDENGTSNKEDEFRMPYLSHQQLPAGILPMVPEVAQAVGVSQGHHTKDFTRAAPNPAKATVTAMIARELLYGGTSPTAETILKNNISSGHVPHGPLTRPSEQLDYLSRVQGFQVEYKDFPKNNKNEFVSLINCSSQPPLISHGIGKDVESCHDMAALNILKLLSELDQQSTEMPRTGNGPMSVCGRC
UniProt Q9Y5B9, whole entry, looked up: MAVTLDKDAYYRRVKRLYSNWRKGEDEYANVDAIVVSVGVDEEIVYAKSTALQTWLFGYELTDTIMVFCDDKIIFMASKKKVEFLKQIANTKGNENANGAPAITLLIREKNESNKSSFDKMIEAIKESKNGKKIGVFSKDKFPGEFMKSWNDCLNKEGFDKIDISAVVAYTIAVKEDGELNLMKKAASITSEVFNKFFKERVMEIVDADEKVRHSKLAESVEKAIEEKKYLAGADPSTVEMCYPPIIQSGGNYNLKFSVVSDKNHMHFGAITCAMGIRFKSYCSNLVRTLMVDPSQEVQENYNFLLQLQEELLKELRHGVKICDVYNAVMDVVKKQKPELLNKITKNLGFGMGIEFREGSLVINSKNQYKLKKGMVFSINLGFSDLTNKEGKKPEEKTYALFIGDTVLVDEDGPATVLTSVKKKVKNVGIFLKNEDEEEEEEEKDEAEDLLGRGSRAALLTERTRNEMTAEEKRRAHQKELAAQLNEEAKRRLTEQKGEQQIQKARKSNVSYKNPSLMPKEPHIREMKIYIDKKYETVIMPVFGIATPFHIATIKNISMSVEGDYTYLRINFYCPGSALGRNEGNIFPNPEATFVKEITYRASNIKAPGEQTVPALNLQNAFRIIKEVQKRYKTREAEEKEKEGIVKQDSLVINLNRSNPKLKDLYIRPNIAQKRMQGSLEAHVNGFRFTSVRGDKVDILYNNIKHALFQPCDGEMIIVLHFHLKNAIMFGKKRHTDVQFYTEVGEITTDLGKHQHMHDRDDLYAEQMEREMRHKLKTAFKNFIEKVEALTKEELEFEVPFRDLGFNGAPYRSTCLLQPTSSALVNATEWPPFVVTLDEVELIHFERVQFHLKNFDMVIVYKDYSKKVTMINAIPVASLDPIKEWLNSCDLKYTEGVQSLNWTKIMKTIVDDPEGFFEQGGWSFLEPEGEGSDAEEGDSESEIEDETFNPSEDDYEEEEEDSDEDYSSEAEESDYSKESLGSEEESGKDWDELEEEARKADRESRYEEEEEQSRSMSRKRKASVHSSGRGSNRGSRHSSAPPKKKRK
UniProt Q15468: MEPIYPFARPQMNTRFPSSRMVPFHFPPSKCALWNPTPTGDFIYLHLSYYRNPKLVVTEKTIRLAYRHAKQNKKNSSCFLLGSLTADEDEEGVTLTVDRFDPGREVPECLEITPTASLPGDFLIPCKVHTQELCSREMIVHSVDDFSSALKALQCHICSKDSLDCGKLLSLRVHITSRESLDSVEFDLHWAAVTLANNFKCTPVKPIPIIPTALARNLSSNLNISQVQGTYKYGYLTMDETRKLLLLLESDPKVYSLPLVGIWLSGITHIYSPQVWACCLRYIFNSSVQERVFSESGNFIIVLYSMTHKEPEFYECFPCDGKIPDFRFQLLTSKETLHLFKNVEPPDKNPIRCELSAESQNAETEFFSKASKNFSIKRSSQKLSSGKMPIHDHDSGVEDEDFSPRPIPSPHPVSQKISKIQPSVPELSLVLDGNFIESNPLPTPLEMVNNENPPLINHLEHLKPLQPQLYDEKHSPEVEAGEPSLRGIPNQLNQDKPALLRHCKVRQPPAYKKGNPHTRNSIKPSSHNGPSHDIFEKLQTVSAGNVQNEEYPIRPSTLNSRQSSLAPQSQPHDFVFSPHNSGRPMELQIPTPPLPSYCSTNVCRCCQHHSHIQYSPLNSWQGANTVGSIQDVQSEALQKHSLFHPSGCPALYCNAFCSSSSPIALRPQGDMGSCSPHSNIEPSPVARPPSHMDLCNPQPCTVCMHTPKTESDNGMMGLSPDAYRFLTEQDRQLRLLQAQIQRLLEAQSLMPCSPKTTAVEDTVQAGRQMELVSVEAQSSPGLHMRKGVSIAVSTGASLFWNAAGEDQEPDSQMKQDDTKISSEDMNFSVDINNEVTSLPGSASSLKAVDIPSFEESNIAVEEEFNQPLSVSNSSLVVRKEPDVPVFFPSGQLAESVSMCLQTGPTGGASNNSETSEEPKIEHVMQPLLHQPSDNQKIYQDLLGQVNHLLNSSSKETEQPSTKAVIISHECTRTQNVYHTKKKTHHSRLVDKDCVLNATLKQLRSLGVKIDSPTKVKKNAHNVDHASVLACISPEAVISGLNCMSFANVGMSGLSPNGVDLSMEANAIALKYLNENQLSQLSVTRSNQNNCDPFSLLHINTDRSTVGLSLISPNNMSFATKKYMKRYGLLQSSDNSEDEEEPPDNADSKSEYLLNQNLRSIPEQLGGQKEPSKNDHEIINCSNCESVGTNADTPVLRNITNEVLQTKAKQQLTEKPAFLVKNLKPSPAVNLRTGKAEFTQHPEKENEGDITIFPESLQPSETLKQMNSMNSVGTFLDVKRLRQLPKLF
UniProt Q9BXP5: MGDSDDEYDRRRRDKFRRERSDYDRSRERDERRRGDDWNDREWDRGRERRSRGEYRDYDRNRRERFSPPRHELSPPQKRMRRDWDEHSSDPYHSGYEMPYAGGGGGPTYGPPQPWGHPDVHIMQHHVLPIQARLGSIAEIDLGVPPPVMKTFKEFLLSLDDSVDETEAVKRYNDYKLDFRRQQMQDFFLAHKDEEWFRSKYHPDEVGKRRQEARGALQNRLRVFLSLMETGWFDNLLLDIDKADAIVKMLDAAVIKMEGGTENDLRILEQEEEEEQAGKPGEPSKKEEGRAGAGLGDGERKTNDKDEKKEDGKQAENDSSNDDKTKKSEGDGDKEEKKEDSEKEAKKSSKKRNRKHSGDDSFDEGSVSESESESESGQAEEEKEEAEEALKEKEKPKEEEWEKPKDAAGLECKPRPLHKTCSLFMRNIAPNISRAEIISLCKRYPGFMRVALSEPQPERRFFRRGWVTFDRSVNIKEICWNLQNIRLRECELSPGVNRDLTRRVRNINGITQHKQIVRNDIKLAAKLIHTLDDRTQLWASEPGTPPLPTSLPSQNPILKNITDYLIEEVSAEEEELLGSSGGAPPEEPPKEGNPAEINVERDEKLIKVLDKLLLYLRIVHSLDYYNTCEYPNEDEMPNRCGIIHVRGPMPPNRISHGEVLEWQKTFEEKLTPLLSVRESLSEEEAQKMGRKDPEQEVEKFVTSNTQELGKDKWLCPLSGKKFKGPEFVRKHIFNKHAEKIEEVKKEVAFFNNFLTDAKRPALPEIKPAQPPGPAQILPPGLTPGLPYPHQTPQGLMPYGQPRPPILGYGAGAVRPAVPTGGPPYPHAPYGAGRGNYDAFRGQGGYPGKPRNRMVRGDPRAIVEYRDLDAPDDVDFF
UniProt Q16629: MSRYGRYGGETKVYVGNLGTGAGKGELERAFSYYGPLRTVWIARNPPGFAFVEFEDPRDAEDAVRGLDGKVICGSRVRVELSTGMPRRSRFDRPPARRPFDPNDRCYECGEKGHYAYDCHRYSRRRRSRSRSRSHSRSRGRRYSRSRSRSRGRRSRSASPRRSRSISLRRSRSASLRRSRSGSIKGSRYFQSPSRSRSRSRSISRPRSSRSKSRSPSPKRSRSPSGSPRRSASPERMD
UniProt Q15833: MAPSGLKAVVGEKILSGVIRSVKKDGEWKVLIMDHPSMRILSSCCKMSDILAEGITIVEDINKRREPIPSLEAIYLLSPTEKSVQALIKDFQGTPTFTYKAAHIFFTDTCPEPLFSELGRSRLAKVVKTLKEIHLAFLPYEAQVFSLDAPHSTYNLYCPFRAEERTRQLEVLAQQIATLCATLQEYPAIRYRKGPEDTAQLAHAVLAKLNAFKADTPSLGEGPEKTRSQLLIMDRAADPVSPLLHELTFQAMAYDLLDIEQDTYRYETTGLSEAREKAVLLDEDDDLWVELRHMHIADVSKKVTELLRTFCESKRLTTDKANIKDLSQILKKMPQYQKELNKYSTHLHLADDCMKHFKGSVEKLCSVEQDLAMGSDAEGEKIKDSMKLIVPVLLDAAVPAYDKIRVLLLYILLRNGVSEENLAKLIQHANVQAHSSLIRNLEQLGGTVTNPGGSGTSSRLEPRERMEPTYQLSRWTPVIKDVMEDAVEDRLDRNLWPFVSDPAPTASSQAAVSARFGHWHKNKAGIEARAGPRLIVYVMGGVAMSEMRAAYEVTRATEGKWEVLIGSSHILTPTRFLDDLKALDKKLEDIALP
UniProt Q9H4F1: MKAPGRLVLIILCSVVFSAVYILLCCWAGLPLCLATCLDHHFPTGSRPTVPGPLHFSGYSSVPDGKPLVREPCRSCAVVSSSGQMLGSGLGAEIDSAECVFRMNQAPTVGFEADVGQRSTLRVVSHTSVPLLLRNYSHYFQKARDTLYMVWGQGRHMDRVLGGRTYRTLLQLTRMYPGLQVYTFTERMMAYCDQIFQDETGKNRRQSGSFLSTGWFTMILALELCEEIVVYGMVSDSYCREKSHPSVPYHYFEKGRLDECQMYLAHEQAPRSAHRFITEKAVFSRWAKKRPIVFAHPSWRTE

The list shows a part of the results.

Compound in this assay: Cc1cc(ccc1-c1ccccc1)C(=O)N1CCCN(CC1)C(=O)CCl [compound 10]
Briefly: probe-labelled cysteine peptide fold change vs DMSO (competition) (log2 fold change); higher = less target engagement (more negative = stronger competition). The settings on record: THP-1, incubation time: 4 h.
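Further: competitive profiling in live THP-1 cells: cysteine peptides tagged with an iodoacetamide desthiobiotin (IA-DTB) probe, intensity after compound treatment relative to DMSO-treated cells.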

As to “SUN2_Q9UH99_705_ILTNWGHPEYTCIYR (UniProt Q9UH99)”, the “probe-labelled cysteine peptide fold change” value (10 µM) came out at 0.195 and the “probe-labelled cysteine peptide fold change” value (50 µM) came to 0.345.

Consider “STBD1_O95210_108_EVCDNSR (UniProt O95210)”, for which the “probe-labelled cysteine peptide fold change” value is, setting by setting: (10 µM) -0.201; (50 µM) -0.183.

For the target “STRIP1_Q5VSL9_769_LNDDWAYGNDLDARPWDFQAEECALR (UniProt Q5VSL9)”, the “probe-labelled cysteine peptide fold change” value runs as follows: (10 µM) -0.0806; (50 µM) 0.0938.

“SUZ12_Q15022_531_RTPITHILVCRPK (UniProt Q15022)”: the “probe-labelled cysteine peptide fold change” value runs as follows: (10 µM) -0.0893; (50 µM) -0.0991.

Take “STIM2_Q9P246_313_EGAECELSR (UniProt Q9P246)”: the “probe-labelled cysteine peptide fold change” value reads like this: (10 µM) -0.223; (50 µM) -0.513.

Consider “STAU1_O95793_523_NEFVSLINCSSQPPLISHGIGK (UniProt O95793)”, for which the “probe-labelled cysteine peptide fold change” value reads like this: (10 µM) 0.138; (50 µM) 0.154.

Regarding “SSRP1_Q08945_139_FGGQLLSFDIGDQPVFEIPLSNVSQCTTGK (UniProt Q08945)”, the “probe-labelled cysteine peptide fold change” value is, setting by setting: (10 µM) -0.12; (50 µM) 0.479.

Take “SUPT16H_Q9Y5B9_273_NHMHFGAITCAMGIR (UniProt Q9Y5B9)”: the “probe-labelled cysteine peptide fold change” value is 0.0208 (10 µM) and 0.273 (50 µM).

For the target “STIL_Q15468_126_EVPECLEITPTASLPGDFLIPCK (UniProt Q15468)”, the “probe-labelled cysteine peptide fold change” value (10 µM) came to 0.316 and the “probe-labelled cysteine peptide fold change” value (50 µM) worked out at 0.571.

With “SRRT_Q9BXP5_421_TCSLFMR (UniProt Q9BXP5)”, the “probe-labelled cysteine peptide fold change” value is, setting by setting: (10 µM) -0.138; (50 µM) 0.153.

Turning to “SUPV3L1_Q8IYB8_372_RLTPISVLDHALESLDNLRPGDCIVCFSK (UniProt Q8IYB8)”, the “probe-labelled cysteine peptide fold change” value runs as follows: (10 µM) 0.0877; (50 µM) -0.0406.

For the target SRSF7_Q16629_73_VICGSR (UniProt Q16629), the “probe-labelled cysteine peptide fold change” value (10 µM) is -0.158 and the “probe-labelled cysteine peptide fold change” value (50 µM) is -0.51.

As for “STXBP2_Q15833_45_ILSSCCK (UniProt Q15833)”, the “probe-labelled cysteine peptide fold change” value (10 µM) was determined as 0.0482 and the “probe-labelled cysteine peptide fold change” value (50 µM) was -0.576.

“ST6GALNAC4_Q9H4F1_260_GRLDECQMYLAHEQAPR (UniProt Q9H4F1)”: the “probe-labelled cysteine peptide fold change” value reads like this: (10 µM) 0.203; (50 µM) 0.0855.
